Reference: publication doi:10.1101/2022.09.13.507797 (bioRxiv, 2022)

Legend:
[1] = target: quail factor H (quail (Coturnix japonica)); experiment: ELISA
[2] = target: quail factor H (quail (Coturnix japonica)); experiment: SPR

B1: histidine-tagged CspZB31 (natural protein, Borrelia burgdorferi strain B31)
chain: RLNQRNINELKIFVEKAKYYSIKLDAIYNECTGAYNDIMTYSEGTFSDQSKVNQAISIFKKDNKIVNKFKELEKIIEEYKPMFLSKLIDDFAIELDQAVDNDVSNARHVADSYKKLRKSVVLAYIESFDVISSKFVDSKFVEASKKFVNKAKEFVEENDLIALECIVKTIGDMVNDREINSRSRYNNFYKKEADFLGAAVELEGAYKAIKQTLL
binding [1]: binds

B2: CspZ from B. burgdorferi B31 (CspZB31), untagged recombinant protein (natural protein, Borrelia burgdorferi strain B31)
chain: B1 chain
binding [2]: binds

These are yes or no findings as the source states them, for the method shown. Binding can be weak; no strength is given. Where a sequence is shown, tags or fusion partners need not be part of it.
